{"sequences": {"note": "Chains of the proteins cited; added tags and fusions are not shown. Lines headed by an entry give the natural chain unless they say otherwise; changes in a name come on top.", "UniProt Q03267": "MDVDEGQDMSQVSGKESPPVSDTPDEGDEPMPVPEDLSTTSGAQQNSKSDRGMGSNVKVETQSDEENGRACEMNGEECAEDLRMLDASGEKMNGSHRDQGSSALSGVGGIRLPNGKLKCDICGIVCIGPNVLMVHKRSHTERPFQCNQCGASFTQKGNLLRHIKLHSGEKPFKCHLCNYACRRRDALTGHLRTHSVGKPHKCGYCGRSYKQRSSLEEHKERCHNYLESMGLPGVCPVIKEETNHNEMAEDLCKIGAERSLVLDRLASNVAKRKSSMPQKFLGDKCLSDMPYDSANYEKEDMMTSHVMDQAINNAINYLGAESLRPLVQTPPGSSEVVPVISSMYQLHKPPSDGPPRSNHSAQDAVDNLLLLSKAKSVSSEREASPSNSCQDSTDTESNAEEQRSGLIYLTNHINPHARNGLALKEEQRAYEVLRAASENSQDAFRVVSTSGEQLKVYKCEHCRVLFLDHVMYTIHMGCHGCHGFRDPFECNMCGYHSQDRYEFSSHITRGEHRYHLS"}, "source": "paper PMC3747153", "assay_in_all_cases": "EMSA", "key": {"IK S214A/S215A (mouse)": {"target": "IK S214A/S215A (mouse) (UniProt G5E8H3)", "details": "transfected Hek293T nuclear extract, binding abolished; Chemiluminescent EMSA: 10x buffer 100 mM Tris, 500 mM KCl, 10 mM DTT (1x: 10 mM Tris, 50 mM KCl, 1 mM DTT), 2.5% glycerol, 5 mM MgCl2, 50 ng poly(dI-dC), 0.05% NP-40; protein in an extract; residues 1-515; protein details: FLAG (pCMV6-Entry); label: biotin"}, "IK S168A (mouse)": {"target": "IK S168A (mouse) (UniProt G5E8H3)", "details": "transfected Hek293T nuclear extract; Chemiluminescent EMSA: 10x buffer 100 mM Tris, 500 mM KCl, 10 mM DTT (1x: 10 mM Tris, 50 mM KCl, 1 mM DTT), 2.5% glycerol, 5 mM MgCl2, 50 ng poly(dI-dC), 0.05% NP-40; protein in an extract; residues 1-515; protein details: FLAG (pCMV6-Entry); label: biotin"}, "IK wild type (mouse)": {"target": "IK wild type (mouse) (UniProt G5E8H3)", "details": "transfected Hek293T nuclear extract; Chemiluminescent EMSA: 10x buffer 100 mM Tris, 500 mM KCl, 10 mM DTT (1x: 10 mM Tris, 50 mM KCl, 1 mM DTT), 2.5% glycerol, 5 mM MgCl2, 50 ng poly(dI-dC), 0.05% NP-40; protein in an extract; residues 1-515; protein details: FLAG (pCMV6-Entry); label: biotin"}, "[1]": {"test_system": "native IK, BCL1 nuclear extract (human)", "details": "Chemiluminescent EMSA: 10x buffer 100 mM Tris, 500 mM KCl, 10 mM DTT (1x: 10 mM Tris, 50 mM KCl, 1 mM DTT), 2.5% glycerol, 5 mM MgCl2, 50 ng poly(dI-dC), 0.05% NP-40, protein in an extract"}, "[2]": {"target": "native IK, Hek293T nuclear extract (human) (UniProt Q13422)", "details": "Chemiluminescent EMSA: 10x buffer 100 mM Tris, 500 mM KCl, 10 mM DTT (1x: 10 mM Tris, 50 mM KCl, 1 mM DTT), 2.5% glycerol, 5 mM MgCl2, 50 ng poly(dI-dC), 0.05% NP-40, protein in an extract, label: 32P or 3' biotin"}, "[3]": {"target": "MBP-IK1 (unphosphorylated) (mouse) (UniProt Q03267)", "details": "200 ng protein, 1 ng probe; Chemiluminescent EMSA: 10x buffer 100 mM Tris, 500 mM KCl, 10 mM DTT (1x: 10 mM Tris, 50 mM KCl, 1 mM DTT), 2.5% glycerol, 5 mM MgCl2, 50 ng poly(dI-dC), 0.05% NP-40; recombinant protein; protein details: N-terminal MBP (pMAL-C2); label: 32P or 3' biotin"}, "[4]": {"target": "MBP-IK1 phosphorylated by BTK (mouse) (UniProt Q03267)", "details": "BTK-phosphorylated (5 or 30 min kinase assay), augmented versus unphosphorylated; Chemiluminescent EMSA: 10x buffer 100 mM Tris, 500 mM KCl, 10 mM DTT (1x: 10 mM Tris, 50 mM KCl, 1 mM DTT), 2.5% glycerol, 5 mM MgCl2, 50 ng poly(dI-dC), 0.05% NP-40; recombinant protein; protein details: N-terminal MBP (pMAL-C2); label: 32P or 3' biotin"}}, "note": "For part of these data: Results from cells or extracts need not show a direct contact. For part of these data: A negative result means that nothing was seen under these conditions. For part of these data: For at least one entry, the source does not settle the construct or the ends of the probe. For part of these data: At least one verdict was read from the data and is not stated in words by the source."}
{"sequence": "TATGGCGAGGAAAACTGAAAAAGGTGGAAAATTTAGAAATGT (double strand) [gamma-satellite A]", "values": [{"measurement": "binding result", "setting": "IK S214A/S215A (mouse)", "value": "no binding"}, {"measurement": "binding result", "setting": "IK S168A (mouse)", "value": "binds"}, {"measurement": "binding result", "setting": "IK wild type (mouse)", "value": "binds"}]}
{"sequence": "TCAGCTTTTGAGAATACCCTGTCA (double strand) [IK-BS5]", "values": [{"measurement": "binding result", "setting": "[1]", "value": "no binding"}]}
{"sequence": "TCAGCTTTTGGGAATACCCTGTCA (double strand) [IK-BS1]", "values": [{"measurement": "binding result", "setting": "[2]; cells treated with BTK siRNA 72 h, IK level unchanged", "value": "no binding"}, {"measurement": "binding result", "setting": "[2]; untreated cells", "value": "binds"}, {"measurement": "binding result", "setting": "[1]; CD19xCD19-stimulated, abolished by excess unlabeled IK-BS1, LFM-A13 prevents the increase, label: 32P or 3' biotin", "value": "binds"}, {"measurement": "binding result", "setting": "[3]", "value": "binds"}, {"measurement": "binding result", "setting": "[4]", "value": "binds"}]}
